Experimental data as given in the supplement of paper PMC3334620.
In all, about 33,000 sequences were measured (“E-score (-0.5 to 0.5)”: median about -0.016, highest 2% from about 0.3 on). The list shows a part of the results.

These sequences were tested against T1, Yer184c (UniProt P39961) (assay: PBM E-score (8-mer binding enrichment) (E-score (-0.5 to 0.5)); higher = stronger / more preferred TF binding). Conditions: protein concentration: 100 nM; construct: GST-full length.
T1 sequence: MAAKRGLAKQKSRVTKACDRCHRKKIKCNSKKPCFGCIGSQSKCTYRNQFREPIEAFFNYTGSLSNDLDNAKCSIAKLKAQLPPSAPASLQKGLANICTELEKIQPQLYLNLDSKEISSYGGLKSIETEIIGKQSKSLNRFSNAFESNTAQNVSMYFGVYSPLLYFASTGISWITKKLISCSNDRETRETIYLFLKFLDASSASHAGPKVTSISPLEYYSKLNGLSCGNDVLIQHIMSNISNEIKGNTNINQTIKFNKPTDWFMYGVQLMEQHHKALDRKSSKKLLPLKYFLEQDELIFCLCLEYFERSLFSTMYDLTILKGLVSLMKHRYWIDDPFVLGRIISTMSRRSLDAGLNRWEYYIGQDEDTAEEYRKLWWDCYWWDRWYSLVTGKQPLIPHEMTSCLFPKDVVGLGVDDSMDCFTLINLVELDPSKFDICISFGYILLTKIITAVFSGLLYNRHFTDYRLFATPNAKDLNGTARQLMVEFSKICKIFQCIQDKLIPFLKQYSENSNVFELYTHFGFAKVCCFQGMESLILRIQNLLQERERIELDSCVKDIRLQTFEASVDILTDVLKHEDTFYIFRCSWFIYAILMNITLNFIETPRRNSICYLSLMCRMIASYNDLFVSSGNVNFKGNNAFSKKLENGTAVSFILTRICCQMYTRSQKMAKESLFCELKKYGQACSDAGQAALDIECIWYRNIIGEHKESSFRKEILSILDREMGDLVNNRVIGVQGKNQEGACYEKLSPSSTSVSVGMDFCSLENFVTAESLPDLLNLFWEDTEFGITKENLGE
How it was run: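 GST-tagged yeast TFs (full-length or DNA-binding domain) were made by PURExpress in vitro transcription/translation and applied at about 100-200 nM to universal all-10-mer Agilent arrays. The arrays were made double-stranded by primer extension, on fresh or once-stripped slides. Bound protein was detected with fluorescent anti-GST, and scans were normalised with masliner. Each ungapped eight-base word, pooled with its reverse complement, received an E-score (modified Wilcoxon-Mann-Whitney statistic) from the Universal PBM Analysis Suite.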

Row | Sequence | PBM E-score
1 | AACAACAA | 0.165
2 | AAAGTCAT | -0.0361
3 | AGCCATTG | -0.0138
4 | AGATCCAC | 0.0454
5 | GAGCGGAA | 0.295
6 | AATGTGAC | -0.0966
7 | CACGAGGG | -0.224
8 | AGGACTAA | 0.102
9 | ACAGGTAG | -0.296
10 | AGCAAGGA | -0.173
11 | AAGGTCTA | -0.131
12 | ATTGAAGC | 0.0798
13 | TATTTGAA | 0.207
14 | CCAACACA | -0.0185
15 | AATCGCAT | 0.00749
16 | ACTCATAC | 0.129
17 | CTTAGACA | -0.162
18 | CCAGCGGC | 0.0656
19 | CTAGTAGC | 0.0113
20 | GCCCAGAA | -0.0744
21 | CCTTAGCG | -0.121
22 | GCCTTGAC | -0.0539
23 | AAAAAGGT | 0.0261
24 | AAGTAACA | 0.101
25 | CCGCTGAA | 0.119

Row | Sequence | PBM E-score
26 | CCTGCTCA | -0.0858
27 | ACTACGAG | -0.166
28 | CACTTTTA | 0.0548
29 | AATGCGTG | -0.109
30 | AATCCGGA | 0.401
31 | CGCCTCAA | -0.0432
32 | CGTGTGTA | 0.0942
33 | GTCGAGTA | 0.0216
34 | AACGCGAA | 0.0123
35 | GTTAGACA | 0.222
36 | ACGCCGCC | -0.0562
37 | AGTGAGTA | 0.232
38 | GCGCGCAC | 0.151
39 | CGGTGACG | -0.0568
40 | CTCATCTC | -0.0289
41 | ATAACTAT | 0.0484
42 | GGCATGAC | -0.199
43 | TACTAATA | 0.16
44 | TGCGCGAA | 0.154
45 | TCCATCGA | -0.0504
46 | GGTAGAGA | -0.189
47 | AAATCGCG | 0.0706
48 | CAATACCA | -0.03
49 | TCTACTAA | 0.178
50 | AACCTCAA | -0.0339

Row | Sequence | PBM E-score
51 | CATATGCG | -0.127
52 | GGCTCTTA | -0.0325
53 | ATTTACCG | 0.244
54 | GTCCGGTA | 0.206
55 | CGTATTTC | 0.00818
56 | GATTCGAC | -0.112
57 | ATGGATCC | 0.0253
58 | TCGGAAGA | 0.255
59 | ATGGGGTA | -0.0679
60 | GTACCAAA | 0.102
61 | GGGTTGTA | -0.0942
62 | CGAGGACG | 0.0225
63 | GCGGCGAA | 0.27
64 | TAGTAGAA | 0.105
65 | ATTGTAGA | -0.0109
66 | GGGCTTAA | -0.0829
67 | AGTTATTC | 0.00474
68 | ACTTGGTA | 0.073
69 | ATACAGTG | -0.152
70 | GGGGTACC | -0.269
71 | CTGGGGAC | -0.316
72 | AGTGGTTA | -0.151
73 | AGGGTAGG | -0.181
74 | CCATACGC | -0.0778
75 | GTCGTGCA | -0.124

Reformatted: entries from further up.
ATGGGGTA
  PBM E-score = -0.0679
GTACCAAA
  PBM E-score = 0.102

Further records follow:

Row | Sequence | PBM E-score
76 | AAAGACTG | -0.165
77 | AAGCCTTA | -0.06
78 | ACGGAGCA | 0.059
79 | ACTTTACT | -0.143
80 | CAACTGGC | -0.0795
81 | CCTCCACC | -0.245
82 | GCTGACCC | -0.208
83 | GAGATCGA | 0.114
84 | ACGATCAA | -0.002
85 | AATAACGT | 0.0311
86 | CGTTAACA | 0.0217
87 | CGGGAGTC | -0.0319
88 | ATAACAGG | -0.0751
89 | AACACTTA | -0.0758
90 | CATGGATA | 0.0297
91 | GCGAAAAC | -0.00412
92 | CGTGTCGC | 0.0919
93 | ACAGTCAG | -0.108
94 | ACAATTAA | 0.228
95 | CACCAACC | -0.0529
96 | CACACTGG | -0.225
97 | AGAAGCGA | -0.0747
98 | CAATCAGA | -0.0962
99 | AAGATGAG | -0.2
100 | GAGCTAGC | -0.0773

Row | Sequence | PBM E-score
101 | GATAGTGA | 0.0506
102 | CCAAGGGG | -0.117
103 | CTCGCTAC | -0.125
104 | GAGCCATA | -0.0488
105 | AAACCATA | 0.0966
106 | AAGAGCAC | 0.0565
107 | CCACGCGA | -0.161
108 | CAGAAGTA | 0.0745
109 | CTCGGCTC | 0.237
110 | CATGGGGC | -0.178
111 | GCAGCCAA | -0.00398
112 | ATGAGTGA | -0.0741
113 | TCAACCCA | -0.106
114 | AGGTAAGC | -0.198
115 | ATGTGAAG | 0.143
116 | TGTAGTAA | 0.0976
117 | AATTGAAA | 0.0463
118 | CATCATTC | -0.03
119 | GATAATCA | 0.101
120 | CACTGAGG | -0.0546
121 | CCAGAATC | -0.00204
122 | GCTCTAAC | -0.2
123 | ATTCTGAC | -0.0112
124 | ATCGACCG | 0.166
125 | CGAGTTGC | 0.0678

Looked up one by one from the list above, three records:
Row | Sequence | PBM E-score
121 | CCAGAATC | -0.00204
108 | CAGAAGTA | 0.0745
123 | ATTCTGAC | -0.0112

Following part:

Row | Sequence | PBM E-score
126 | GCCTCACA | -0.0173
127 | CGAGAAGA | -0.0036
128 | CGAAATCA | 0.207
129 | ATCGCGAA | 0.273
130 | AAGGCGAT | -0.0705
131 | CTGGGCGA | -0.206
132 | ACAAACGA | 0.193
133 | CCAGCCGG | 0.24
134 | TCAGTGGA | -0.181
135 | AGTGATAG | -0.218
136 | TGCACGAA | -0.00528
137 | TCAAAAAA | 0.136
138 | ACTGTTAT | 0.0534
139 | AAGTAACT | 0.00991
140 | ATCTGCAT | -0.0604
141 | CTAACCCC | -0.208
142 | GAGGGATA | -0.198
143 | CGCTTACG | -0.213
144 | ATTACGTG | -0.0902
145 | GGATCTAA | 0.0653
146 | ACACTCCA | -0.127
147 | CTATCAGC | 0.0672
148 | CCATTGAA | 0.107
149 | GGATCGTA | -0.0887
150 | GTCGGCTA | 0.153

As entered above.
AACACTTA – PBM E-score: -0.0758
TACTAATA – PBM E-score: 0.16
GCGCGCAC – PBM E-score: 0.151
CTATCAGC – PBM E-score: 0.0672
ATGGATCC – PBM E-score: 0.0253
TCGGAAGA – PBM E-score: 0.255
AGTGGTTA – PBM E-score: -0.151

Carrying on.

Row | Sequence | PBM E-score
151 | AGTATCAT | 0.0809
152 | AGTCTTTA | -0.06
153 | CTCGCGAC | -0.064
154 | CCAAGACA | 0.0888
155 | ATAGATAG | 0.0386
156 | ACGCACAT | -0.0963
157 | TACGGGCA | 0.00579
158 | CCGAAACA | 0.268
159 | ACACGTCA | -0.15
160 | ATTCCTCA | 0.0275
161 | CTTGACTA | 0.0268
162 | AGCTGGAA | -0.213
163 | CCAAGCAG | -0.19
164 | AGGCGTGG | -0.313
165 | AACCAGTC | -0.0109
166 | AATCTGTG | -0.0639
167 | AACTAGCG | 0.0167
168 | AGACGGCG | 0.0535
169 | CTCATGAC | 0.0456
170 | AGTCGGAG | -0.0456
171 | GGCACGTA | -0.0256
172 | GCAACGGC | 0.134
173 | ATACGGGG | -0.124
174 | CTTTCGAC | -0.108
175 | AAACTGGC | -0.166

Row | Sequence | PBM E-score
176 | ATCAGAAC | 0.143
177 | AGGGGGTA | -0.452
178 | AGCTGGCA | -0.144
179 | CCTTGCGA | -0.165
180 | ACACATTA | 0.0161
181 | ACGCATAA | 0.0303
182 | GGCCCTCA | -0.357
183 | AGCCCTGG | -0.263
184 | GCCACTAC | -0.187
185 | ACAAAGCT | 0.123
186 | AATAGTAG | 0.149
187 | AAAGTACG | 0.00128
188 | GTCATACA | -0.0809
189 | GTTTGATA | 0.193
190 | CGCAATTA | 0.153
191 | ATTATACC | 0.227
192 | TAGCCAAA | -0.0129
193 | ATATTGCA | 0.0979
194 | CTCTAGTC | -0.244
195 | TGACCCAA | -0.169
196 | ATATCGCC | 0.191
197 | GCCTTCAA | -0.0184
198 | AGTGCATG | -0.111
199 | AACACACT | -0.0687
200 | CCTAGCGC | 0.0279

Row | Sequence | PBM E-score
201 | ACTTTCAC | 0.085
202 | CAACCGTC | -0.00179
203 | CACCAATA | 0.011
204 | CGCACGTC | -0.0918
205 | GCAATTCA | 0.0386
206 | GAGCCGTA | 0.307
207 | CCCCACTC | -0.329
208 | AGCTGGCG | -0.266
209 | ACCTGCTC | -0.143
210 | CATGTAAC | -0.0822
211 | TAGAGTGA | -0.106
212 | AGACTAAT | 0.168
213 | ACCAGATA | 0.142
214 | AAGAGGTA | -0.129
215 | GACATCTC | -0.0181
216 | CGTTGTAG | 0.165
217 | AACGCTTA | -0.163
218 | TATGCGAA | 0.106
219 | CTTAGGCA | -0.166
